According to patent US12251387B2, “Substituted quinoxalines and benzo[c][1,2,5]oxadiazoles as DNA-PK inhibitors” (Vertex Pharmaceuticals Incorporated, priority 2013, dated 2025):
Some results were stated once for a whole list of compounds, not compound by compound.

By UniProt entry, the sequences of proteins in these tests, tags left out.
UniProt P78527, whole entry: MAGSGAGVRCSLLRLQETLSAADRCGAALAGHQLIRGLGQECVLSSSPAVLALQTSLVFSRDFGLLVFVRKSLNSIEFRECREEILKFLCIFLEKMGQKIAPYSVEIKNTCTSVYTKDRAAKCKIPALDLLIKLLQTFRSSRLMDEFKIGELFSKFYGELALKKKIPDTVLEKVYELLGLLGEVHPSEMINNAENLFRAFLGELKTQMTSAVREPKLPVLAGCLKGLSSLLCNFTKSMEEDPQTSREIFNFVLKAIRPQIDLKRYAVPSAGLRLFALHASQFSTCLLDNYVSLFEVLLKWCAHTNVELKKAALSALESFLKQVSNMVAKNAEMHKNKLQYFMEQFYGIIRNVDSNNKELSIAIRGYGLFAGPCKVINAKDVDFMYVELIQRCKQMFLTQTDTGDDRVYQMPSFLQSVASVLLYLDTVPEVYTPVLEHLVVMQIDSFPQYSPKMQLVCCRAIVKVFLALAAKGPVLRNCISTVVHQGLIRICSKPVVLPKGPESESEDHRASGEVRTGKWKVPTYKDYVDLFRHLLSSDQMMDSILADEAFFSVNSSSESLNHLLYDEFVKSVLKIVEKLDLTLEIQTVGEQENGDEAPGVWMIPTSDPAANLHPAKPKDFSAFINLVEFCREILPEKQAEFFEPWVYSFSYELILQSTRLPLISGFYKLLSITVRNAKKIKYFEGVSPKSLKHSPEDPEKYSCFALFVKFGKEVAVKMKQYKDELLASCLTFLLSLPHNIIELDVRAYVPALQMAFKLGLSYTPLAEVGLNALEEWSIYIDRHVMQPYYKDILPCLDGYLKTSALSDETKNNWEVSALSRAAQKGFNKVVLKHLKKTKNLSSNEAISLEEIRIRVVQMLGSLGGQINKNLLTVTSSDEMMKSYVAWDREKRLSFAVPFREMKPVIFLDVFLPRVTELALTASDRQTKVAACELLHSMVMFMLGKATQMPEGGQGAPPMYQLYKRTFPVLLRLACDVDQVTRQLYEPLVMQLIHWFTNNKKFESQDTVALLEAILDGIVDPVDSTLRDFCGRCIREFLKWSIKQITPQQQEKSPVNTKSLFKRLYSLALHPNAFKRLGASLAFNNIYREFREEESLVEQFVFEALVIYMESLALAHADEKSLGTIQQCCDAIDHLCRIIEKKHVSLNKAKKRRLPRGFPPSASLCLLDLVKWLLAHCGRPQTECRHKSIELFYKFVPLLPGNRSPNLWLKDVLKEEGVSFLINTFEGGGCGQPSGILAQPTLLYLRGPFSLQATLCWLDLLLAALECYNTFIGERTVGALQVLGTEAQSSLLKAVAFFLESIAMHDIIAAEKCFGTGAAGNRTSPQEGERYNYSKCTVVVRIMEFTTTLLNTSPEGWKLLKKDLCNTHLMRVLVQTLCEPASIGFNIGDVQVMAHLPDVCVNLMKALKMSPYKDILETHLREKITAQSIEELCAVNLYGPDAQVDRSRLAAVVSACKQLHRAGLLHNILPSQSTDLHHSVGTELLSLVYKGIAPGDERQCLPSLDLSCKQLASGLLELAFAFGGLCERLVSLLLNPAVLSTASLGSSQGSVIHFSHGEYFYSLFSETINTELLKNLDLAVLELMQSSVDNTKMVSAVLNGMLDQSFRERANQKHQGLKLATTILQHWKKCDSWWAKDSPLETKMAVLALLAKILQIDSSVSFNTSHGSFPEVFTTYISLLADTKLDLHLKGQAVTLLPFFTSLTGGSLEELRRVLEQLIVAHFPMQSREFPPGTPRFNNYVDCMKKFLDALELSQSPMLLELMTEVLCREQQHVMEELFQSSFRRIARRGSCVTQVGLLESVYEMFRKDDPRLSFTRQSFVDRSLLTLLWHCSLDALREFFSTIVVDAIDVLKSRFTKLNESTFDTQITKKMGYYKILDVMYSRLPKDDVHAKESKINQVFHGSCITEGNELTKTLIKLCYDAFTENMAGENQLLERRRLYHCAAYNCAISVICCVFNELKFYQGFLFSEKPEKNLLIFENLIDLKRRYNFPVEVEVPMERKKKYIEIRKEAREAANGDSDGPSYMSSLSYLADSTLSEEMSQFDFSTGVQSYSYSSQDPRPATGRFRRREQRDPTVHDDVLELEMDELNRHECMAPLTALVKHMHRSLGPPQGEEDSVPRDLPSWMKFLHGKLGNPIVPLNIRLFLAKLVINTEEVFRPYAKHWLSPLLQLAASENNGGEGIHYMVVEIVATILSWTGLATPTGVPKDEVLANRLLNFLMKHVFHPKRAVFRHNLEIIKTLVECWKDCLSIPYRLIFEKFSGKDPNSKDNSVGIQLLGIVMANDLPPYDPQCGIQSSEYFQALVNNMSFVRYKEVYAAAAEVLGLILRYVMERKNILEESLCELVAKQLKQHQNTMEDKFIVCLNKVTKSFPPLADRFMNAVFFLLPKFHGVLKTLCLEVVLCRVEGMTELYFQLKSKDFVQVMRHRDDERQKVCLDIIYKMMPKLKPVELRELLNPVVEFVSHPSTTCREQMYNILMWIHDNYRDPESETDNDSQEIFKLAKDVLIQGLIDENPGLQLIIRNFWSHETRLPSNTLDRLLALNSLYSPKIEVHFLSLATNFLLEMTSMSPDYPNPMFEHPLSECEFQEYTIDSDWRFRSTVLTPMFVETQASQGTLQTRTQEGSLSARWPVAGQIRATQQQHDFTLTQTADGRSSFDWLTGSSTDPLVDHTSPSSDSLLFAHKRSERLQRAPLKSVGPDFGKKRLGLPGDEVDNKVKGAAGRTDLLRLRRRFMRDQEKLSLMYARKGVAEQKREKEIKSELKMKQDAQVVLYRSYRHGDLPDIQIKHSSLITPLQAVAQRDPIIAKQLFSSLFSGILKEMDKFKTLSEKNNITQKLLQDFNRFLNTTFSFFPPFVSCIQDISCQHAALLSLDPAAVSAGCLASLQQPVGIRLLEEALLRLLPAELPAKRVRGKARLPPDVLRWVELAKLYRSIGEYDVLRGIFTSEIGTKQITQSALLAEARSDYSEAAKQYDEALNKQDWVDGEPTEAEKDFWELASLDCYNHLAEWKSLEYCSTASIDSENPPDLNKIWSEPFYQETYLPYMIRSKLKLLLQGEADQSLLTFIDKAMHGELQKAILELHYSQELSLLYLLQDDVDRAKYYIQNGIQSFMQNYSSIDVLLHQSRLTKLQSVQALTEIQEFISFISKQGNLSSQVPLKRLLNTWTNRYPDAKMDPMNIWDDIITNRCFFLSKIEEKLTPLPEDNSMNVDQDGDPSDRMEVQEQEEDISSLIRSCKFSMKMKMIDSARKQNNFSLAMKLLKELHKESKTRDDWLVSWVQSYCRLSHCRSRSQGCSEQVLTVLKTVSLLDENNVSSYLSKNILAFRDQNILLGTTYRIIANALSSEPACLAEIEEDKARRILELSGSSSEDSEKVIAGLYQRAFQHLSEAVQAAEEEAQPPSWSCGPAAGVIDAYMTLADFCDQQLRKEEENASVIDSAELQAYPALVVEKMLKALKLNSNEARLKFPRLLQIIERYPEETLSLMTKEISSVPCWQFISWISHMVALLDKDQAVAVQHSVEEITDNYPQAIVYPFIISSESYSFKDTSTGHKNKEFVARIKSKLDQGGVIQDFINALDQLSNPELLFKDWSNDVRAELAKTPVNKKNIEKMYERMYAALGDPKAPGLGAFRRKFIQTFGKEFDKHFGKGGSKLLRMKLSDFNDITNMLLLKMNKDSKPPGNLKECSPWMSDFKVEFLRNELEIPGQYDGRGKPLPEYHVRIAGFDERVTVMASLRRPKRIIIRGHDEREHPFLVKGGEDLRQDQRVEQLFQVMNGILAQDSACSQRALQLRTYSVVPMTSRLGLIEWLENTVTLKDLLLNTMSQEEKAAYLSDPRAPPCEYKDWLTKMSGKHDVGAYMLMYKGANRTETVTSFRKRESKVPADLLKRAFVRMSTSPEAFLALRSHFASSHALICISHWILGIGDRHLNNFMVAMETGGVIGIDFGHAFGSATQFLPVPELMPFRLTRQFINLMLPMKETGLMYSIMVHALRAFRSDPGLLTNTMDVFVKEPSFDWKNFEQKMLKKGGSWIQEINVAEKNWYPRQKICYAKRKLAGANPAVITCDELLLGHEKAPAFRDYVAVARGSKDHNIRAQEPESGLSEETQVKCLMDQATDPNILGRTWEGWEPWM

Biological target: DNA-PK (Homo sapiens, UniProt P78527)
Experiment: DNA-PK Inhibition Assay (standard radiometric kinase assay, 33P-ATP, peptide substrate)
Format: biochemical
Settings: approximately 6 nM DNA-PK, 100 μM ATP, 45 min, fit to competitive tight-binding inhibition
Protocol: Compounds were screened for their ability to inhibit DNA-PK kinase using a standard radiometric assay. Briefly, in this kinase assay the transfer of the terminal ^33P-phosphate in ^33P-ATP to a peptide substrate is interrogated. The assay was carried out in 384-well plates to a final volume of 50 μL per well containing approximately 6 nM DNA-PK, 50 mM HEPES (pH 7.5), 10 mM MgCl2, 25 mM NaCl, 0.01% BSA, 1 mM DTT, 10 μg/mL sheared double-stranded DNA (obtained from Sigma), 0.8 mg/mL DNA-PK peptide (Glu-Pro-Pro-Leu-Ser-Gln-Glu-Ala-Phe-Ala-Asp-Leu-Trp-Lys-Lys-Lys, obtained from American Peptide), and 100 μM ATP. Accordingly, compounds of the invention were dissolved in DMSO to make 10 mM initial stock solutions. Serial dilutions in DMSO were then made to obtain the final solutions for the assay. A 0.75 μL aliquot of DMSO or inhibitor in DMSO was added to each well, followed by the addition of ATP substrate solution containing ^33P-ATP (obtained from Perkin Elmer). The reaction was started by the addition of DNA-PK, peptide and ds-DNA. After 45 min, the reaction was quenched with 25 μL of 5% phosphoric acid. The reaction mixture was transferred to MultiScreen HTS 384-well PH plates (obtained from Millipore), allowed to bind for one hour, and washed three times with 1% phosphoric acid. Following the addition of 50 μL of Ultima Gold™ high efficiency scintillant (obtained from Perkin Elmer), the samples were counted in a Packard TopCount NXT Microplate Scintillation and Luminescence Counter (Packard BioScience). The Ki values were calculated using Microsoft Excel Solver macros to fit the data to the kinetic model for competitive tight-binding inhibition.

Compound | Ki [µM]
OC[C@H]1CC[C@@H](Oc2cc(N3CCOCC3)cc3nccnc23)CC1 [Compound 611] | < 1
O=C(NC[C@H]1CC[C@@H](Oc2cc(N3CCOCC3)cc3nccnc23)CC1)c1cnccn1 [Compound 345] | < 1
Clc1ncc(CN[C@H]2CC[C@@H](Oc3cc(N4CCOCC4)cc4nccnc34)CC2)cn1 [Compound 520] | < 1
Cc1nccc(N[C@H]2C[C@@H](COc3cc(N4CCOCC4)cc4nccnc34)C2)n1 [Compound 301] | < 1
O=C(NC[C@H]1CC[C@@H](Oc2cc(N3CCOCC3)cc3nccnc23)CC1)C1CCOC1 (stereo partly drawn) [Compound 344] | < 1
NC(=O)[C@H]1CC[C@@H](Oc2cc(N3CCOCC3)cc3nccnc23)CC1 [Compound 555] | < 1
Cc1nccc(NC[C@H]2C[C@H](Oc3cc(N4CCOCC4)cc4nccnc34)C2)n1 [Compound 302] | < 1
c1cnc(N[C@H]2C[C@@H](COc3cc(N4CCOCC4)cc4nccnc34)C2)nc1 [Compound 305] | < 1
Cc1nccc(N[C@H]2CC[C@@H](Oc3cc(C4CCOCC4)cc4nccnc34)CC2)n1 [Compound 375] | < 1
Cc1nccc(N[C@H]2C[C@H](COc3cc(N4CCOCC4)cc4nccnc34)C2)n1 [Compound 300] | < 1
Cc1nccc(NC[C@H]2C[C@@H](Oc3cc(N4CCOCC4)cc4nccnc34)C2)n1 [Compound 303] | < 1
Cc1nccc(N[C@H]2CC[C@@H](Oc3cc(-c4ccncc4)cc4nccnc34)CC2)n1 [Compound 367] | < 1
OC1CN(c2cc(O[C@H]3CC[C@@H](Nc4ncccn4)CC3)c3nccnc3c2)C1 [Compound 656] | < 1
c1cc(O[C@H]2CC[C@@H](Nc3ncc4c(n3)COC4)CC2)c2nccnc2c1 [Compound 342] | < 1
c1cnc(N[C@H]2C[C@H](COc3cc(N4CCOCC4)cc4nccnc34)C2)nc1 [Compound 304] | < 1
CC(=O)NC[C@H]1CC[C@@H](Oc2cc(N3CCOCC3)cc3nccnc23)CC1 [Compound 346] | < 1
CN1CC[C@H](Nc2ncnc(N[C@H]3CC[C@@H](Oc4cc(N5CCOCC5)cc5nccnc45)CC3)c2F)C1 [Compound 343] | < 1
c1cnc(NC[C@H]2C[C@H](Oc3cc(N4CCOCC4)cc4nccnc34)C2)nc1 [Compound 306] | < 1
CC(C)(C)OC(=O)NC[C@H]1CC[C@@H](Oc2cc(N3CCOCC3)cc3nccnc23)CC1 [Compound 392] | < 1
c1cnc(N[C@H]2C[C@H](Oc3cc(N4CCOCC4)cc4nccnc34)C2)nc1 [Compound 525] | < 1
CCOc1cc(N[C@H]2CC[C@@H](Oc3cc(N4CCOCC4)cc4nccnc34)CC2)nc(C)n1 [Compound 644] | < 1
